These are yes or no findings as the source states them, for the method shown. Binding seen in cells or lysates may run through a third protein. A result given as binding can be weak or reduced; the word gives no strength. Sequences can lack the tags named with a protein.

For one molecule, binding results are on record in paper PMC12781078.

The experiment deals with EGFR-ICD-HA (EGFR intracellular domain). Kind of experiment: co-IP; HEK-293T cells transfected with 3 ug of each plasmid for 48 h; lysates in WB/IP lysis buffer incubated with anti-Flag or anti-HA beads overnight at 4 °C; Western blot.

B1: DCBLD1-Flag (discoidin, CUB and LCCL domain containing 1, full length) (protein, UniProt Q8N8Z6 35-715)
chain: EELGDGCGHLVTYQDSGTMTSKNYPGTYPNHTVCEKTITVPKGKRLILRLGDLDIESQTCASDYLLFTSSSDQYGPYCGSMTVPKELLLNTSEVTVRFESGSHISGRGFLLTYASSDHPDLITCLERASHYLKTEYSKFCPAGCRDVAGDISGNMVDGYRDTSLLCKAAIHAGIIADELGGQISVLQRKGISRYEGILANGVLSRDGSLSDKRFLFTSNGCSRSLSFEPDGQIRASSSWQSVNESGDQVHWSPGQARLQDQGPSWASGDSSNNHKPREWLEIDLGEKKKITGIRTTGSTQSNFNFYVKSFVMNFKNNNSKWKTYKGIVNNEEKVFQGNSNFRDPVQNNFIPPIVARYVRVVPQTWHQRIALKVELIGCQITQGNDSLVWRKTSQSTSVSTKKEDETITRPIPSEETSTGINITTVAIPLVLLVVLVFAGMGIFAAFRKKKKKGSPYGSAEAQKTDCWKQIKYPFARHQSAEFTISYDNEKEMTQKLDLITSDMADYQQPLMIGTGTVTRKGSTFRPMDTDAEEAGVSTDAGGHYDCPQRAGRHEYALPLAPPEPEYATPIVERHVLRAHTFSAQSGYRVPGPQPGHKHSLSSGGFSPVAGVGAQDGDYQRPHSAQPADRGYDRPKAVSALATESGHPDSQKPPTHPGTSDSYSAPRDCLTPLNQTAMTALL
In the case of B1, the binding entry is “binds”.
